Taken from: PubChem BioAssay AID504784 (Drosophila RNAi Screening Center, 2011)

Purpose: 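Genome-wide knock-down for genes giving too much or too little stored lipid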 (primary screen)
System: Drosophila Kc167 embryonic cells
Reagent: long dsRNA against Drosophila genes, about 250 ng dsRNA per well
Time to read-out: 4 days
Conditions: cells fed 400 µM oleic acid bound to BSA
Read-out: 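Cells imaged and segmented; ratio of lipid droplet area to nuclear area, log-transformed, then normalised as a B-score over the screen; higher means more stored lipid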
Scale: droplet/nuclear area B-score: higher = more stored lipid (overstorage)
The deposit covers about 17,000 reagents; shown is an unselected part of those with a known target gene and a result. 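Each column is one replicate's B-score; the combined score over replicates was not deposited, so single values may mislead.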 Names joined by + are all predicted targets of the reagent. Further read-outs or replicates are left out here.

CG5861 (GeneID 34965) [DRSC02907] → droplet/nuclear area B-score, replicate 1: -1.1
CG17816 (GeneID 40928) [DRSC15277] → droplet/nuclear area B-score, replicate 1: -1.57
mei-W68 (GeneID 2768853) [DRSC07649] → droplet/nuclear area B-score, replicate 1: 0.0162
Vajk4 (GeneID 36950) [DRSC06589] → droplet/nuclear area B-score, replicate 1: -0.758
Vajk4 (GeneID 36950) [DRSC07003] → droplet/nuclear area B-score, replicate 1: -0.514
CG16964 (GeneID 34605) [DRSC02546] → droplet/nuclear area B-score, replicate 1: 0.758
CG12081 (GeneID 31799) [DRSC17802] → droplet/nuclear area B-score, replicate 1: 0.917
Pp1alpha-96A (GeneID 42922) [DRSC16795] → droplet/nuclear area B-score, replicate 1: -0.625
Pp1alpha-96A (GeneID 42922) [DRSC23320] → droplet/nuclear area B-score, replicate 1: 0.63
CG15023 (GeneID 38550) [DRSC08477] → droplet/nuclear area B-score, replicate 1: 1.38
CG8323 (GeneID 36566) [DRSC07149] → droplet/nuclear area B-score, replicate 1: 0.0841
CG3376 (GeneID 37884) [DRSC04362] → droplet/nuclear area B-score, replicate 1: -0.904
CG8777 (GeneID 35921) [DRSC07263] → droplet/nuclear area B-score, replicate 1: 1.46
CG6426 (GeneID 36891) [DRSC06985] → droplet/nuclear area B-score, replicate 1: 0.569
Mco1 (GeneID 34258) [DRSC02720] → droplet/nuclear area B-score, replicate 1: -0.548
beat-VII (GeneID 43213) [DRSC13780] → droplet/nuclear area B-score, replicate 1: 2.76
beat-VII (GeneID 43213) [DRSC14743] → droplet/nuclear area B-score, replicate 1: 0.608
beat-VII (GeneID 43213) [DRSC14744] → droplet/nuclear area B-score, replicate 1: 0.363
beat-VII (GeneID 43213) [DRSC22825] → droplet/nuclear area B-score, replicate 1: -2.22

Targets listed so far whose gene name starts with B or b (4):
beat-VII (GeneID 43213) [DRSC13780] → droplet/nuclear area B-score, replicate 1: 2.76
beat-VII (GeneID 43213) [DRSC14743] → droplet/nuclear area B-score, replicate 1: 0.608
beat-VII (GeneID 43213) [DRSC14744] → droplet/nuclear area B-score, replicate 1: 0.363
beat-VII (GeneID 43213) [DRSC22825] → droplet/nuclear area B-score, replicate 1: -2.22

Further records:
CG14770 (GeneID 31085) [DRSC17947] → droplet/nuclear area B-score, replicate 1: 0.502
eIF2Bdelta (GeneID 37706) [DRSC04058] → droplet/nuclear area B-score, replicate 1: 0.648
CG42516 + Pbp49 [DRSC06073] → droplet/nuclear area B-score, replicate 1: -0.0177
Cyp4e1 (GeneID 44632) [DRSC07370] → droplet/nuclear area B-score, replicate 1: 1.08
Neurochondrin (GeneID 40796) [DRSC12580] → droplet/nuclear area B-score, replicate 1: 1.83
CG3847 (GeneID 31577) [DRSC17444] → droplet/nuclear area B-score, replicate 1: -0.0802
CG3847 (GeneID 31577) [DRSC18327] → droplet/nuclear area B-score, replicate 1: 1.64
CG13708 (GeneID 38582) [DRSC08317] → droplet/nuclear area B-score, replicate 1: 1.93
B-H2 (GeneID 32723) [DRSC19335] → droplet/nuclear area B-score, replicate 1: -1.46
B-H2 (GeneID 32723) [DRSC23012] → droplet/nuclear area B-score, replicate 1: 0.688
Pdk1 (GeneID 38017) [DRSC08682] → droplet/nuclear area B-score, replicate 1: 2.37
CG17786 (GeneID 42879) [DRSC15270] → droplet/nuclear area B-score, replicate 1: 1.87
AnxB11 (GeneID 32612) [DRSC19331] → droplet/nuclear area B-score, replicate 1: 0.288
PGAP3 (GeneID 35570) [DRSC04989] → droplet/nuclear area B-score, replicate 1: -0.432
Vrp1 (GeneID 37521) [DRSC04148] → droplet/nuclear area B-score, replicate 1: 1.03
CG31735 (GeneID 318922) [DRSC01518] → droplet/nuclear area B-score, replicate 1: -0.0283
Ars2 (GeneID 35539) [DRSC04893] → droplet/nuclear area B-score, replicate 1: -1.15
CG9993 (GeneID 37358) [DRSC04599] → droplet/nuclear area B-score, replicate 1: -1.67
Gr59a (GeneID 117485) [DRSC21550] → droplet/nuclear area B-score, replicate 1: -2.08
lcs (GeneID 33120) [DRSC20580] → droplet/nuclear area B-score, replicate 1: -0.143
CG7737 (GeneID 36174) [DRSC07033] → droplet/nuclear area B-score, replicate 1: -2
